Reference: patent publication CN105585631A
No constants are given. Whether binding was seen depends on the method and setting. Some results given as binding are weak or reduced against the parent protein; the word gives no strength.

Sequences of proteins named here, by UniProt entry; tags and fusion partners are left off. Residues count along the entry.
UniProt P03101, residues 11-475: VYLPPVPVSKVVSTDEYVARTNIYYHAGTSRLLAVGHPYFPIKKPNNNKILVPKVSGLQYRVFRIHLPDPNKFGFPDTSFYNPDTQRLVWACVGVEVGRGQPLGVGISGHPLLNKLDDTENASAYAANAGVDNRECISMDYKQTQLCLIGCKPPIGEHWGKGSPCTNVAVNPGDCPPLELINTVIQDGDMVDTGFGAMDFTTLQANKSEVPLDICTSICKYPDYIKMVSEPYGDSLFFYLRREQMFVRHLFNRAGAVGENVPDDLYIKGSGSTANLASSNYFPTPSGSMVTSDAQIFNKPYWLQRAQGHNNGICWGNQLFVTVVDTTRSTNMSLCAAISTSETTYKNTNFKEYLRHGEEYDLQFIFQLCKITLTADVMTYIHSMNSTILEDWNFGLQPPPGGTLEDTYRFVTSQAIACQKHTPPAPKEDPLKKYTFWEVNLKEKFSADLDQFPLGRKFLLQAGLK

Molecular target: HPV16 L1五聚体蛋白 (人乳头瘤病毒16型 (HPV16)) (UniProt P03101)
Assay: sandwich ELISA kit: 5A6 capture, 4G12-HRP detection, pentamer 10 ug/ml

B1: 单克隆抗体5A6 (杂交瘤细胞株5A6, CGMCC 11299) (antibody, V domains shown)
VH: VKLQQSGAELVKPGASVKLSCTASGFNIKDTYMHWVKQRPEQGLEWIGRIDPANGNTEYDPNFQGKATITSDTSSNTAYLHLSSLTSEDTAVYYCAREVGGYYFDYWGQGTTVTVSS
VL: DIQLTQSPSSMSASLGDRITITCQATQDIVKNLNWYQQKPGKPPSFLIYYATELAEGVPSRFSGSGSGSDYSLTISNLESEDFADYYCLQFYEFPLTFGAGTKLEI
B1 was tested. Which binding did it give?
The binding was “binds”.
